Among the data in US20040009905A1 (B.M.R.A. Corporation B.V., priority 1998, published 2004) are conjugation yield values, retold here.

This data set is described as follows: general procedure: Fmoc solid-phase peptide synthesis; Rink amide resin; PyBOP/DIEA. Particulars: conjugation step.

Some peptides are written in HELM: one residue between dots, names in brackets for other building blocks, links after the first $.

“PEPTIDE1{[Amn].[Lys(oxAoa)].G.[Lys(oxAoa)]}|PEPTIDE2{G.Y.S.A.L.R.H.Y.I.N.L.I.T.R.Q.R.Y.[am]}|PEPTIDE3{G.Y.S.A.L.R.H.Y.I.N.L.I.T.R.Q.R.Y.[am]}$PEPTIDE1,PEPTIDE1,1:R1-4:R2|PEPTIDE1,PEPTIDE2,2:R3-1:R1|PEPTIDE1,PEPTIDE3,4:R3-1:R1$$$V2.0” gave a conjugation yield of 45% yield.
